Experimental data published in PMC7648380.
Results are given in words; binding and its absence hold for the method and conditions named. Binding seen in cells or lysates may run through a third protein. Some results given as binding are weak or reduced against the parent protein; the word gives no strength.

By UniProt entry, the sequences of proteins in these tests, tags left out. Residues count along the entry.
UniProt Q01097, residues 27-1482: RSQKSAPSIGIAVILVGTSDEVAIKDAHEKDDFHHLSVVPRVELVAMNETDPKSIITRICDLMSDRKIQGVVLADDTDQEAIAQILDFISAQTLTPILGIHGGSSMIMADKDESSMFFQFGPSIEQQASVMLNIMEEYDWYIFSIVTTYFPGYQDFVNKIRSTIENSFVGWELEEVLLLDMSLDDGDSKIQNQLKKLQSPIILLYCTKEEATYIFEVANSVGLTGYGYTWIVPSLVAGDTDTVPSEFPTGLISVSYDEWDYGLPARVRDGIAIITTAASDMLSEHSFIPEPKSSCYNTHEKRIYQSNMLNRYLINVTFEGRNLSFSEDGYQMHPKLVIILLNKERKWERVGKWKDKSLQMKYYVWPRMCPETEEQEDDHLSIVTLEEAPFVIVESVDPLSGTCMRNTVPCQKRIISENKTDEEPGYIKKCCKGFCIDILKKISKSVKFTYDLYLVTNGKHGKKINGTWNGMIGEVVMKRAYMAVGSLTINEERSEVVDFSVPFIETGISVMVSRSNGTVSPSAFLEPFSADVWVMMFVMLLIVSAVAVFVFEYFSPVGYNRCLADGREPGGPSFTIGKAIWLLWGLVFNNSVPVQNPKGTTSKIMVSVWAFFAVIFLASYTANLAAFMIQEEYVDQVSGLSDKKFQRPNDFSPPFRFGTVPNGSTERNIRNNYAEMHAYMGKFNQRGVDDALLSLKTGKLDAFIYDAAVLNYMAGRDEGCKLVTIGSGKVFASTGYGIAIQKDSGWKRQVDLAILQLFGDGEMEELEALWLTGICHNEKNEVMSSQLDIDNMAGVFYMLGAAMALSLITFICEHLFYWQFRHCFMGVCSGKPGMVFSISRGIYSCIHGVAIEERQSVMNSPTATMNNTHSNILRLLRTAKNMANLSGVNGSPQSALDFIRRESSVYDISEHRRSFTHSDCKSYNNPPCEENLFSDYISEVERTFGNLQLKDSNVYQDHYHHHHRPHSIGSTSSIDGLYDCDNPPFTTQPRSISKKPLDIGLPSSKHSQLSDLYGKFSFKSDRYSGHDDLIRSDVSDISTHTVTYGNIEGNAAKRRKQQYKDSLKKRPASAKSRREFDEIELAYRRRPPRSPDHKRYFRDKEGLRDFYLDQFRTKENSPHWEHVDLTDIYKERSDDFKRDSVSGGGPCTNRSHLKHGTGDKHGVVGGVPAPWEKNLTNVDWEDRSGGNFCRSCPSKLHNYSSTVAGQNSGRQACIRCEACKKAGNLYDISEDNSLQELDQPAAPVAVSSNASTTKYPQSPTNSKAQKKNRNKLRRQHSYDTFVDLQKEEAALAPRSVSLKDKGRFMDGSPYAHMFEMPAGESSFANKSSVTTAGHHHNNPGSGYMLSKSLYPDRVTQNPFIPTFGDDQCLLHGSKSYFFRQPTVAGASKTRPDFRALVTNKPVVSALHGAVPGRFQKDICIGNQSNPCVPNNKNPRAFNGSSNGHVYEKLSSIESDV

Biological target: T1, megakaryocyte protein tyrosine phosphatase (PTPMEG) (mouse (endogenous in hippocampus)) (UniProt Q9WU22)
T1 sequence: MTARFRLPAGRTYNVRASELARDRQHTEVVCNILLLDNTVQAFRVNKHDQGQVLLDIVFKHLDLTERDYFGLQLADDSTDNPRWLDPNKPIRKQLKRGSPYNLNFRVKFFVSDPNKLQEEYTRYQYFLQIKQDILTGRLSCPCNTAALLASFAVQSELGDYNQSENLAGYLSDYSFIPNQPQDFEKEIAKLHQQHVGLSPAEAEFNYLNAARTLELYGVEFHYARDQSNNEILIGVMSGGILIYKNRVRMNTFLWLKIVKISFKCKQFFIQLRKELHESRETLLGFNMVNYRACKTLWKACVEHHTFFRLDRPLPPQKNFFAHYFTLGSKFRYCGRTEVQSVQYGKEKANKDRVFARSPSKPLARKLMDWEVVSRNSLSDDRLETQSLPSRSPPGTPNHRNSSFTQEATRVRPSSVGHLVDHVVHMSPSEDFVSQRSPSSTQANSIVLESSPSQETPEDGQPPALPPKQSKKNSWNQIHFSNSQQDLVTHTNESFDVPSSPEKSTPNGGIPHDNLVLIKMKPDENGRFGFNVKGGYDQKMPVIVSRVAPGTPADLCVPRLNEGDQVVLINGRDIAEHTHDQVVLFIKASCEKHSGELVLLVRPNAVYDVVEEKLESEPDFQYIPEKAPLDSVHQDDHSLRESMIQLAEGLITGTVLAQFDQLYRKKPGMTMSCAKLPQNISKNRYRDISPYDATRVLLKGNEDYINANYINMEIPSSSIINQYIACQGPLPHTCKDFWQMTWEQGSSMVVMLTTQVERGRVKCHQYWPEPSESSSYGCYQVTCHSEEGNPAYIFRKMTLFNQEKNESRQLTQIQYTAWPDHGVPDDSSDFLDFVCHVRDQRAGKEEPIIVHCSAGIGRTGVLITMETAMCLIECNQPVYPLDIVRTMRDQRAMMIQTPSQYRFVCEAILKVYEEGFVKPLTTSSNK
Assay: co-IP; P2 fractions from wild type mouse hippocampi solubilized in 50 mM Tris-HCl pH 8.0, 150 mM NaCl, 2 mM EDTA, 1% Triton X-100; immunoprecipitation with anti-PTPMEG antibody (or control IgG) pre-bound to protein G-agarose; immunoblot with anti-GluN2A and anti-GluN2B

| binding | Substance |
| --- | --- |
| binds | GluN2A NMDAR subunit (from UniProt P35436 23-1464) (receptor) |
| binds | GluN2B NMDAR subunit (from UniProt Q01097 27-1482) (receptor) |
